These are yes or no findings as the source states them, for the method shown. Binding seen in cells or lysates may run through a third protein. Some results given as binding are weak or reduced against the parent protein; the word gives no strength.
T1: EMP3 in U-118 cells (proximity ligation assay) (human (endogenous in U-118)) (UniProt P54852)
T1 sequence: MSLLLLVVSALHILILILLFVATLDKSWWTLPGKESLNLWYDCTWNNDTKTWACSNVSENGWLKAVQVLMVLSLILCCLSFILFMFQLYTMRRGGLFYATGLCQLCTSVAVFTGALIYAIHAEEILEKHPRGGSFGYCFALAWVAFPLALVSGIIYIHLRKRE

Amino acid sequences for entries named in this document (tags omitted).
UniProt Q92609: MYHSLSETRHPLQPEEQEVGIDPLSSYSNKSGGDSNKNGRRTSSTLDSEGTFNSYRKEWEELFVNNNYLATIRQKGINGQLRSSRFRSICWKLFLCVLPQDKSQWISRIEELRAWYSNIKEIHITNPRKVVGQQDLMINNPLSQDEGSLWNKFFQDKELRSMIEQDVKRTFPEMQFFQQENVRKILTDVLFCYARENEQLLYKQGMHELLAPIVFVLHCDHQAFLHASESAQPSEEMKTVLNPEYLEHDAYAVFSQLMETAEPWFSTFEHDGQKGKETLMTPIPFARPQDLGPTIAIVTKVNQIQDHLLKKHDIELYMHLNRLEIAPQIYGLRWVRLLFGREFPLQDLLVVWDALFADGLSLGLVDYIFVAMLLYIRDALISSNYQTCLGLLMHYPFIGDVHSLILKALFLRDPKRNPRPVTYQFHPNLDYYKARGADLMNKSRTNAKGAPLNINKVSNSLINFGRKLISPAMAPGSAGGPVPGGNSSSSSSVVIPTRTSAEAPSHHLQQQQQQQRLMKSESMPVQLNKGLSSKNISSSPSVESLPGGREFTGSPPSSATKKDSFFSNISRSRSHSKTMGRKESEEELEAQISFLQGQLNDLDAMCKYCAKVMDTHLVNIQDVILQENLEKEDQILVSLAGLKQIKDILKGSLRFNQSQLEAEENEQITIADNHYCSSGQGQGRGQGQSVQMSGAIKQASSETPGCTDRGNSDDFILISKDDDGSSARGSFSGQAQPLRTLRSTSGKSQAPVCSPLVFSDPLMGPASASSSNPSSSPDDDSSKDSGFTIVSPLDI
UniProt Q13596: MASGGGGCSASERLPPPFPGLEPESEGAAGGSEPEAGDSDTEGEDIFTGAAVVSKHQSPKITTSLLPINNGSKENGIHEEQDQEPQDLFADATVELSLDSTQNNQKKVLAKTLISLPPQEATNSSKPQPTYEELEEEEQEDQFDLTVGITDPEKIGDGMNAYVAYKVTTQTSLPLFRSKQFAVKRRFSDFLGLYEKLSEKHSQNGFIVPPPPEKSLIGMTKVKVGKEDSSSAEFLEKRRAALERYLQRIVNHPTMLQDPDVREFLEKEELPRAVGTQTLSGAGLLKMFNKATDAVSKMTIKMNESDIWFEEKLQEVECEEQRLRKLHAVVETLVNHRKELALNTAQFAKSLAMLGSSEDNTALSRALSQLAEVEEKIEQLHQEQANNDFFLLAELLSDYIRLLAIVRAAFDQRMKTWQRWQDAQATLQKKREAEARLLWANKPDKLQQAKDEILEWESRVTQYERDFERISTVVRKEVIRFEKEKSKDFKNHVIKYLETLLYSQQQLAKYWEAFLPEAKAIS


Biological target: T1, EMP3 in U-118 cells (proximity ligation assay) (human (endogenous in U-118))
Assay: proximity ligation

Row | Molecule | binding
1 | EGFR (from UniProt P00533 25-1210) (receptor) | binds
2 | VPS53 (protein, UniProt Q5VIR6 1-832) MMEEEELEFVEELEAVLQLTPEVQLAIEQVFPSQDPLDRADFNAVEYINTLFPTEQSLANIDEVVNKIRLKIRRLDDNIRTVVRGQTNVGQDGRQALEEAQKAIQQLFGKIKDIKDKAEKSEQMVKEITRDIKQLDHAKRHLTTSITTLNHLHMLAGGVDSLEAMTRRRQYGEVANLLQGVMNVLEHFHKYMGIPQIRQLSERVKAAQTELGQQILADFEEAFPSQGTKRPGGPSNVLRDACLVANILDPRIKQEIIKKFIKQHLSEYLVLFQENQDVAWLDKIDRRYAWIKRQLVDYEEKYGRMFPREWCMAERIAVEFCHVTRAELAKIMRTRAKEIEVKLLLFAIQRTTNFEGFLAKRFSGCTLTDGTLKKLESPPPSTNPFLEDEPTPEMEELATEKGDLDQPKKPKAPDNPFHGIVSKCFEPHLYVYIESQDKNLGELIDRFVADFKAQGPPKPNTDEGGAVLPSCADLFVYYKKCMVQCSQLSTGEPMIALTTIFQKYLREYAWKILSGNLPKTTTSSGGLTISSLLKEKEGSEVAKFTLEELCLICNILSTAEYCLATTQQLEEKLKEKVDVSLIERINLTGEMDTFSTVISSSIQLLVQDLDAACDPALTAMSKMQWQNVEHVGDQSPYVTSVILHIKQNVPIIRDNLASTRKYFTQFCVKFANSFIPKFITHLFKCKPISMVGAEQLLLDTHSLKMVLLDLPSISSQVVRKAPASYTKIVVKGMTRAEMILKVVMAPHEPLVVFVDNYIKLLTDCNTETFQKILDMKGLKRSEQSSMLELLRQRLPAPPSGAESSGSLSLTAPTPEQESSRIRKLEKLIKKRL | binds

Continued, values first:

Row | binding | Molecule
3 | binds | TBC1D5 (from UniProt Q92609 1-795)
4 | binds | SNX1 (from UniProt Q13596 1-522)
